# Results reported in PubChem BioAssay AID1347426 (Functional Genomics Laboratory (NCATS/FGL), 2020).
# Out of some 31,000 sequences screened, about 1,400 (4.5%) were called active.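 Rule for the calls: active = median seed-adjusted z-score above 1 or below -1; inactive = the rest.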 This is one part of the list.
# Assay: Novel Modifiers of Survival Motor Neuron (SMN) Protein: Gene Identification via Genome-wide siRNA Screen;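 note: luminescence tracks full-length SMN protein made from the SMN2 reporter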
# Conditions: HEK293T SMN2-luciferase reporter, siRNA knockdown, 72 h; actives lie on both sides
# Method in brief: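 HEK293T cells stably carrying an SMN2 promoter/splicing cassette–luciferase reporter were reverse-transfected with 1 pmol siRNA per well (druggable-genome library, 3 siRNAs per gene) and grown 72 h at 37 °C. Luminescence, normalized to negative-control siRNA and log10-transformed, was scored as MAD.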
row,Sequence,median seed-adjusted z-score
1,CAGUAUCUAUUCACAAUGATT against TRNT1,inactive: 0.142
2,GAAGUGACGAGAAUUUACATT against PSMAL,inactive: 0.525
3,CAAACGAGAAUAUGAGAAATT against UBE2B,inactive: 0.333
4,GGAGGAAAUUCUCAAUGCUTT against LILRB5,inactive: 0.834
5,GGACAAUUGGUUGCAGACATT against EPHB6,inactive: -0.0275
6,AGGACAAAAGGAACCCGGATT against GIPC1,inactive: 0
7,CCACUAGAAUUGAUUAGAATT against SLC25A40,inactive: 0.414
8,GGAUACUAAUGAUUCCUGATT against KCNS1,inactive: -0.167
9,GUACUACUUCUACUGGAAATT against TNFAIP6,inactive: 0
10,ACAUCGCCCUCAAACGGGATT against ACTL7A,active: 1.1
11,GGUGGAGUAUACUGAAGAATT against TPH2,inactive: 0.275
12,GGUGCAAGCAGGUUACGAATT against BLVRB,inactive: 0.0133
13,CGAUUUUGAUUAUCCCUAATT against HIVEP2,inactive: 0.294
14,CAAUAGGUUUUAUCUACUATT against ZNF121,inactive: 0.0687
15,GAUCUGAUGUAGACCAAGATT against RNF14,inactive: 0.296
16,CCAGGCUAUCUUUCCGAUATT against PTPN3,inactive: -0.535
17,GGCUGGUUGUUGAUAGCAUTT against KCNH1,inactive: -0.0859
18,GGAGUAAUGAGAUAGUACATT against ARAP3,inactive: -0.00876
19,GCGGGAACAUACAAUGUAATT against INPP5B,inactive: 0
20,GCAACAGUAUUUCGGUAUATT against CHEK1,active: -5.1
21,GGAGUAAACCUCACUGACATT against TMPRSS5,active: 1.25
22,CAUGAAUCGUUCCAACAAATT against GTF2H3,inactive: 0.356
23,CAACUAUAGUGCUCCCAGUTT against ZFP36L1,inactive: -0.933
24,GGACAUUCUUAAACGACUUTT against DIAPH1,inactive: 0.145
25,GGGAGUCUUUCUUCGGGAATT against ABCG1,inactive: -0.609
26,GAAAUACGCAGGAAGGAAATT against TMPRSS9,inactive: 0.106
27,CGCCCUUGGUUUUAGCAGATT against ABO,inactive: 0

row,Sequence,median seed-adjusted z-score
1,GGACAAGAUUCACCAACAATT against GIP,inactive: 0
2,GCUACGAUAUUUUCUUAUUTT against TRDMT1,inactive: 0
3,GACGAUGAAUGAAAAGGCATT against NRBP1,active: -1.13
4,CCUGCUAUGUCUUCGGUUATT against MED13,inactive: -0.469
5,GACUUUGCCUUGAUUCACATT against PRPS1,inactive: 0.034
6,CAACAGCGAUUGGAAUGGATT against UGDH,inactive: 0.674
7,CCUUUAUGCCUGAUCCUCATT against SULT1C3,inactive: -0.731
8,GCACCUAGAGGUUACCAAATT against RUFY2,inactive: 0
9,GCUGAACUCUUGAGCCUAATT against TRIM27,inactive: -0.378
10,GCCUUGACCCUGAGUGUAATT against CASZ1,inactive: 0.263
11,ACCAAGUACGCAAACUUUUTT against ST3GAL3,inactive: -0.133
12,GCAUUCAUCCUGUUAGUUUTT against RAET1E,inactive: -0.616
13,CCGAAUAUCUCUCACACGATT against ZNF667,inactive: -0.101
14,CAGCAGGACCUGUUCCUCATT against NXNL1,inactive: 0.334
15,GCUCCGGUCUGUUGUCACATT against LYPLA2,inactive: 0.28
16,CAACAACAAUCAUAGCUGATT against SSBP1,inactive: -0.456
17,CGAAACUACCGAUUCCACATT against PLA2G3,inactive: 0.543
18,GGAGGUUCCCGGUAUCACATT against ELA1,inactive: 0.687
19,GGACACCUGUGAACCGCAUTT against ARID3A,active: -1.11
20,UCAAAGCUUUUGACCAGAUTT against SLC5A10,inactive: 0.669
21,GCACGGACCUAGCUAUGAUTT against TC2N,inactive: 0.461
22,GAAAUAGCAUCAGCAGAUATT against LBR,inactive: 0.303
23,GGAUCAUCAUGGAAUUGUATT against PTK2B,active: 1.71
24,CGAACUCGCUAGUGACAUATT against NRAP,inactive: -0.205
25,AGCAAUUCACAAAAUGUGATT against LALBA,inactive: -0.148
26,CCGUGUACCUGUUCACCAATT against CACNG7,inactive: -0.403
27,CCCACUACUUUGCAAGUAATT against BLM,inactive: -0.0654

# Some of the entries so far, as tab-separated lines.
row	Sequence	median seed-adjusted z-score
13	CGAUUUUGAUUAUCCCUAATT against HIVEP2	inactive: 0.294
15	GAUCUGAUGUAGACCAAGATT against RNF14	inactive: 0.296
14	CAGCAGGACCUGUUCCUCATT against NXNL1	inactive: 0.334
